Results taken from patent US8088794B2, “Substituted amide derivatives and methods of use” (Amgen Inc., priority 2005, dated 2012).
Some results were stated once for a whole list of compounds, not compound by compound.

Protein sequences, listed by entry. Tags and fused reporters are not part of them. Residues count along the entry.
UniProt P08581, 25-1390: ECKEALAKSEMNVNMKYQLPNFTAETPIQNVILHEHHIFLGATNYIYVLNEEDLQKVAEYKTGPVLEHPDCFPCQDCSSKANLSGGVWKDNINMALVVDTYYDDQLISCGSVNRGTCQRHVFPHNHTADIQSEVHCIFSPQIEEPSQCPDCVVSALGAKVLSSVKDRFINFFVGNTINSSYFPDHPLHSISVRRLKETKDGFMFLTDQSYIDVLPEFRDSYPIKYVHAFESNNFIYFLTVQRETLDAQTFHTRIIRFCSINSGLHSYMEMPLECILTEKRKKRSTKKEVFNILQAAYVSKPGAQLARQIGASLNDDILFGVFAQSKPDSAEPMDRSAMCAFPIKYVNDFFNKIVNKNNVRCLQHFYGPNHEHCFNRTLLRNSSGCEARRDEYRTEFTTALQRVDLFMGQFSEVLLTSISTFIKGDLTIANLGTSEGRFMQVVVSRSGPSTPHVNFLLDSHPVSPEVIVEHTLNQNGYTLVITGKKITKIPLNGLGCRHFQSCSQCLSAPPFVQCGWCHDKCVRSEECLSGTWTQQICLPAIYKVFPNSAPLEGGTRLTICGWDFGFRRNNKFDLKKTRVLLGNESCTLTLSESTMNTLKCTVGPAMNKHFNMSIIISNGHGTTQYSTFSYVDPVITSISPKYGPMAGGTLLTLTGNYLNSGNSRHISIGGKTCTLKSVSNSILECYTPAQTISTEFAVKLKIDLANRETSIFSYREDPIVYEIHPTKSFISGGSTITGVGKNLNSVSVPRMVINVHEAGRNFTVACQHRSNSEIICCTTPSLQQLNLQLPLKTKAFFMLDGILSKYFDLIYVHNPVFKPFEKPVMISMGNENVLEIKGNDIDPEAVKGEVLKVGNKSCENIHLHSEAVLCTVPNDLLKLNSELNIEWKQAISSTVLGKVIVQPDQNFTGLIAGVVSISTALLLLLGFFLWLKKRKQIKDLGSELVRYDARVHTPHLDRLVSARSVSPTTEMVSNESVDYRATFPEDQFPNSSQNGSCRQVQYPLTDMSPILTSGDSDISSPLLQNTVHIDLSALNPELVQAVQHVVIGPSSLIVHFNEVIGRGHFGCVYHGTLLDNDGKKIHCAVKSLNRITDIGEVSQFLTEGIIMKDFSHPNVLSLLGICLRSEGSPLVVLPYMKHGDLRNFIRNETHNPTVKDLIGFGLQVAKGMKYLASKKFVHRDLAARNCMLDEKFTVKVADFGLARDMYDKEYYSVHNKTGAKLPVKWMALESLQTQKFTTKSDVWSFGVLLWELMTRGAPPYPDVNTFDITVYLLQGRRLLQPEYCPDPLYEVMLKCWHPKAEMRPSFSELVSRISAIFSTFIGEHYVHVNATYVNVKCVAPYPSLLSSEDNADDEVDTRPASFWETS
UniProt P16056, 25-1379: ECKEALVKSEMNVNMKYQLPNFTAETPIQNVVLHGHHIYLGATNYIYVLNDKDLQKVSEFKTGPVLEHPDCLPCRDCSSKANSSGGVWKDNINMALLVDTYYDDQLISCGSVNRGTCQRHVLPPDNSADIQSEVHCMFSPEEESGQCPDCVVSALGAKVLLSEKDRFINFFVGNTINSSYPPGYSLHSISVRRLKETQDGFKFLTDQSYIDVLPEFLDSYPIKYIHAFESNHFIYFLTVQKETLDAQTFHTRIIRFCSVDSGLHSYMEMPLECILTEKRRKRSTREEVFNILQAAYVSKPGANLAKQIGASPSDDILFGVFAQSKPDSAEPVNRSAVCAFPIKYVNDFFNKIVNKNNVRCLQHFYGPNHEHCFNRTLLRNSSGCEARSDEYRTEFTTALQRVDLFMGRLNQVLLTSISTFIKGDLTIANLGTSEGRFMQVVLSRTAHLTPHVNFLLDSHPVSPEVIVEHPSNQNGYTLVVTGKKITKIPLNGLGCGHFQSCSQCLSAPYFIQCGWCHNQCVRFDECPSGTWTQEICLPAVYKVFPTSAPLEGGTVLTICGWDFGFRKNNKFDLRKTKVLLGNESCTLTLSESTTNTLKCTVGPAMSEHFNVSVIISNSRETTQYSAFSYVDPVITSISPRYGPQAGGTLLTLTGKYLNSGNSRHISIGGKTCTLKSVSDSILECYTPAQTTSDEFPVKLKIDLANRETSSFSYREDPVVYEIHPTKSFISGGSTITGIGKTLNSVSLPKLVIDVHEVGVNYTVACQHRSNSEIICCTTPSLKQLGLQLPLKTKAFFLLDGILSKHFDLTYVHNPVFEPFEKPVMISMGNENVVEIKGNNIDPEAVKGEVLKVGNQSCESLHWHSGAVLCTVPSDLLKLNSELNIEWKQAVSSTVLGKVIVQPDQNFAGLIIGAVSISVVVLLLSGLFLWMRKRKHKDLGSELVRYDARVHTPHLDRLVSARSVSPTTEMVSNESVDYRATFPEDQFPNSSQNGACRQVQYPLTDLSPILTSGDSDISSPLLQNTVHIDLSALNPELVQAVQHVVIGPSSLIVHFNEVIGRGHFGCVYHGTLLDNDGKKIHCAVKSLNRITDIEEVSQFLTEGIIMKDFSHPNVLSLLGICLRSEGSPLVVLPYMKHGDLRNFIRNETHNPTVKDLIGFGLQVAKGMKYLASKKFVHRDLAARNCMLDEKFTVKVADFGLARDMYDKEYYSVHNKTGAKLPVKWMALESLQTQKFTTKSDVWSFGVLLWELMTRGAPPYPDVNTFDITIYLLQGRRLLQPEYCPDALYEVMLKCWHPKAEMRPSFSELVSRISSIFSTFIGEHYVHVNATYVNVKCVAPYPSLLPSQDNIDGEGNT

Key:
c-Met [1] = target: T1, c-Met (Homo sapiens, UniProt P08581); test: c-Met cell-based autophosphorylation assay, PC3 cells; settings: HGF 250 ng/mL, IGEN readout
T1 construct: host or cells: PC3 cells

c-Met [2] = target: T2, c-Met (Mus musculus, UniProt P16056); test: c-Met cell-based autophosphorylation assay, CT26 cells; settings: HGF 250 ng/mL, IGEN readout
T2 construct: host or cells: CT26 cells

Row | IC50 (c-Met [1]) | IC50 (c-Met [2]) | SMILES
1 | < 1 µM | < 1 µM | COc1ccc2c(Oc3ccc(NC(=O)c4c(C)n(C)n(-c5ccccc5Cl)c4=O)cc3F)ccnc2c1 [Example 44, 2-(2-chlorophenyl)-N-(3-fluoro-4-(7-methoxyquinolin-4-yloxy)phenyl)-1,5-dimethyl-3-oxo-2,3-dihydro-1H-pyrazole-4-carboxamide]
2 | < 1 µM | < 1 µM | COc1ccc2c(Oc3ccc(NC(=O)c4c(C)n(C)n(-c5ccc(C)cc5)c4=O)nc3)ccnc2c1 [Example 41, N-(5-(7-methoxyquinolin-4-yloxy)pyridin-2-yl)-1,5-dimethyl-3-oxo-2-p-tolyl-2,3-dihydro-1H-pyrazole-4-carboxamide]
3 | < 1 µM | < 1 µM | COc1cc2nccc(Oc3ccc(NC(=O)c4c(C)n(C)n(-c5ccccc5Cl)c4=O)cc3F)c2cc1OC [Example 43, 2-(2-chlorophenyl)-N-(4-(6,7-dimethoxyquinolin-4-yloxy)-3-fluorophenyl)-1,5-dimethyl-3-oxo-2,3-dihydro-1H-pyrazole-4-carboxamide]
4 | < 1 µM | < 1 µM | COc1cc2nccc(Oc3ccc(NC(=O)c4c(C)n(C)n(-c5ccc(C)cc5)c4=O)cc3F)c2cc1OC [Example 36, N-(4-(6,7-dimethoxyquinolin-4-yloxy)-3-fluorophenyl)-1,5-dimethyl-3-oxo-2-p-tolyl-2,3-dihydro-1H-pyrazole-4-carboxamide]
5 | < 1 µM | – | COc1cc2nccc(Oc3ccc(NC(=O)c4c(C)n(C)n(-c5ccc(F)cc5)c4=O)nc3)c2cc1OC [Example 39, N-(5-(6,7-dimethoxyquinolin-4-yloxy)pyridin-2-yl)-2-(4-fluorophenyl)-1,5-dimethyl-3-oxo-2,3-dihydro-1H-pyrazole-4-carboxamide]
6 | < 1 µM | < 1 µM | COc1cc2nccc(Oc3ccc(NC(=O)c4c(C)n(C)n(-c5ccc(F)cc5)c4=O)cc3F)c2cc1OC [Example 37, N-(4-(6,7-dimethoxyquinolin-4-yloxy)-3-fluorophenyl)-2-(4-fluorophenyl)-1,5-dimethyl-3-oxo-2,3-dihydro-1H-pyrazole-4-carboxamide]

Continued, compound first:

Row | SMILES | IC50 (c-Met [1]) | IC50 (c-Met [2])
7 | COc1ccc2c(Oc3ccc(NC(=O)c4c(-c5ccncc5)n(C)n([C@@H](C)c5ccccc5)c4=O)nc3)ccnc2c1 [Example 13, (S)-N-(5-(7-methoxyquinolin-4-yloxy)pyridin-2-yl)-1-methyl-3-oxo-2-(1-phenylethyl)-5-(pyridin-4-yl)-2,3-dihydro-1H-pyrazole-4-carboxamide] | < 1 µM | < 1 µM
8 | COc1cc2nccc(Oc3ccc(NC(=O)c4c(-c5cc(C)on5)n(C)n(-c5ccccc5)c4=O)nc3)c2cc1OC [Example 25, N-(5-((6,7-bis(methyloxy)-4-quinolinyl)oxy)-2-pyridinyl)-1-methyl-5-(5-methyl-3-isoxazolyl)-3-oxo-2-phenyl-2,3-dihydro-1H-pyrazole-4-carboxamide] | < 1 µM | < 1 µM
9 | COc1ccc2c(Oc3ccc(NC(=O)c4c(-c5ccccn5)n(C)n(-c5ccccc5)c4=O)cc3F)ccnc2c1 [Example 20, N-(3-fluoro-4-(7-methoxyquinolin-4-yloxy)phenyl)-1-methyl-3-oxo-2-phenyl-5-(pyridin-2-yl)-2,3-dihydro-1H-pyrazole-4-carboxamide] | < 1 µM | < 1 µM
10 | COc1cc2nccc(Oc3ccc(NC(=O)c4c(-c5ccncc5)n(C)n(-c5ccccc5)c4=O)nc3)c2cc1OC [Example 17, N-(5-(6,7-dimethoxyquinolin-4-yloxy)pyridin-2-yl)-1-methyl-3-oxo-2-phenyl-5-(pyridin-4-yl)-2,3-dihydro-1H-pyrazole-4-carboxamide] | < 1 µM | < 1 µM
11 | COc1ccc2c(Oc3ccc(NC(=O)c4c(-c5ccncc5)n(C)n(-c5ccccc5)c4=O)cc3F)ccnc2c1 [Example 16, N-(3-fluoro-4-(7-methoxyquinolin-4-yloxy)phenyl)-1-methyl-3-oxo-2-phenyl-5-(pyridin-4-yl)-2,3-dihydro-1H-pyrazole-4-carboxamide] | < 1 µM | < 1 µM
12 | COc1ccc2c(Oc3ccc(NC(=O)c4c(-c5ccncc5)n(C)n(Cc5ccccc5)c4=O)nc3)ccnc2c1 [Example 11, 2-benzyl-N-(5-(7-methoxyquinolin-4-yloxy)pyridin-2-yl)-1-methyl-3-oxo-5-(pyridin-4-yl)-2,3-dihydro-1H-pyrazole-4-carboxamide] | – | < 1 µM
13 | COc1cc2nccc(Oc3ccc(NC(=O)c4c(CN(C)C)n(C)n(-c5ccccc5)c4=O)cc3F)c2cc1OC [Example 4, N-(4-(6,7-dimethoxyquinolin-4-yloxy)-3-fluorophenyl)-5-((dimethylamino)methyl)-1-methyl-3-oxo-2-phenyl-2,3-dihydro-1H-pyrazole-4-carboxamide] | < 1 µM | < 1 µM
14 | COc1ccc2c(Oc3ccc(NC(=O)c4c(-c5ccncc5)n(C)n(Cc5ccccc5)c4=O)cc3F)ccnc2c1 [Example 12, 2-benzyl-N-(3-fluoro-4-(7-methoxyquinolin-4-yloxy)phenyl)-1-methyl-3-oxo-5-(pyridin-4-yl)-2,3-dihydro-1H-pyrazole-4-carboxamide] | – | < 1 µM
